Assay results: patent US20240415832A1 (priority 2021, published 2024)
At least one compound was matched to its structure with a doubt left.

Target: T1, human alpha1A-adrenergic receptor (Homo sapiens, UniProt P35348)
T1 construct: expressed in transfected cells; host or cells: CHO-K1
T1 sequence (P35348 1-466): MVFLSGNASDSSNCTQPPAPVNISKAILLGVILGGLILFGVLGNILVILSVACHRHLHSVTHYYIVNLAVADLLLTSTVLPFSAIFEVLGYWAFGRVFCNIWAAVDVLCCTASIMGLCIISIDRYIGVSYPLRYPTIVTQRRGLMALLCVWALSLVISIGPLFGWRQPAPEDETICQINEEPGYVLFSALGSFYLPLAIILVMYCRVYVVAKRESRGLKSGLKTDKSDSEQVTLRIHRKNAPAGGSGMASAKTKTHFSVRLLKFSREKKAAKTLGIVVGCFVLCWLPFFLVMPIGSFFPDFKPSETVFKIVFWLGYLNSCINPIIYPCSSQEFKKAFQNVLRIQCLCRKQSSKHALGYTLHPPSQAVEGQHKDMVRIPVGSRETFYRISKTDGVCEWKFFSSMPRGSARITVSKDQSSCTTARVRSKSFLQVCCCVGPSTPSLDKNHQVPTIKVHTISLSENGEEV
Experiment: Functional alpha-1A adrenergic receptor aequorin calcium assay, agonist
Assay type: cell-based
Details: CHO-K1 cells, aequorin luminescence

O=C1CN2c3c(cccc3[C@@H]3CN(CCCOc4ccc(F)cc4)CC[C@@H]32)N1 [Example 1, (6bR,10aS)-8-(3-(4-fluorophenoxy)propyl)-6b,7,8,9,10,10a-hexahydro-1H-pyrido[3′,4′:4,5]pyrrolo[1,2,3-de]quinoxalin-2(3H)-one]
agonist activity at the receptor: no agonist activity
